Screen size: about 320,000 compounds; about 620 (0.19%) were called active. Inconclusive means that the source gave no clear call. Such entries were picked first, then a sample of the others. Cut-off read from the data, not from the text of the source: active = activation above about 80%; inconclusive = between about 30% and that limit; inactive = weaker than that.
The molecules below were run against Transient receptor potential cation channel subfamily V member 1 (Homo sapiens) (UniProt Q8NER1) (assay: HTS Assay for Compounds that Act as Agonists of the Vanilloid Receptor 1). Settings: TRPV1-expressing cells, Fluo-8 calcium influx, agonist mode; at 8.33 µM, hits give high values.
Outline: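 Cells expressing TRPV1 were dye-loaded with Fluo-8 and read kinetically: 10 s baseline, 3 min after compound (agonist portion), then 2 min after EC20 capsaicin (allosteric enhancer portion). Calcium-bound dye fluorescence at 480/520 nm.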
Note: 0% is about no effect.

By UniProt entry, the sequences of proteins in these tests, tags left out.
UniProt Q8NER1, whole entry, looked up: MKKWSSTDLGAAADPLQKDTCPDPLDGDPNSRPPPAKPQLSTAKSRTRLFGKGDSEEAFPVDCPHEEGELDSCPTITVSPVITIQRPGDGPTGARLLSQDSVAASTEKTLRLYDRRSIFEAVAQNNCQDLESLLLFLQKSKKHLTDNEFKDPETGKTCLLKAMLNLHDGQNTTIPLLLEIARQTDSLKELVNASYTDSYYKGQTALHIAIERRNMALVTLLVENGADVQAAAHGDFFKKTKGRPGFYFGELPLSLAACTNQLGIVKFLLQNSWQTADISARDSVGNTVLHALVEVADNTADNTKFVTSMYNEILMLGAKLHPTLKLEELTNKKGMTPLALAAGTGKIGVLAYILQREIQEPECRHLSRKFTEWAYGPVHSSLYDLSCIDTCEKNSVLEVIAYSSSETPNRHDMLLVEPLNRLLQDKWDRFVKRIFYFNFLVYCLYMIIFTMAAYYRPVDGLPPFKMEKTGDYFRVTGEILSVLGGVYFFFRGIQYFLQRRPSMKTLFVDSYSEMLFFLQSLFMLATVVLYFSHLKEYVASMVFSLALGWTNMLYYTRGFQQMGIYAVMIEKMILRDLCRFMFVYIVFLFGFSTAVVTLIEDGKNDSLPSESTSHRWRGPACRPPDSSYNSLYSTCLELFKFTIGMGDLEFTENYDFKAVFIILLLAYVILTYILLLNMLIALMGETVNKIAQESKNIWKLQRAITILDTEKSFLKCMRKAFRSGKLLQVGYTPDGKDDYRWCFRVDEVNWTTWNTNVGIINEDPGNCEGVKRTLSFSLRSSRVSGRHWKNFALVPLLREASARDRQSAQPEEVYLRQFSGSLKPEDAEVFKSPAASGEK

| SMILES | activation |
| --- | --- |
| N#Cc1nc(Cc2cccc3ccccc23)oc1NCc1ccco1 | inconclusive: 54.7% |
| O=C(CSc1n[nH]c(-c2ccccn2)n1)Nc1cccc(Cl)c1 | inactive: 6.38% |
| O=C(NCC1CCCO1)c1csc(Nc2cccc3ccccc23)n1 (centres undefined) | inactive: 0.472% |
| O=S(=O)(c1cccc(-c2cn3cc(Cl)ccc3n2)c1)N1CCOCC1 | inactive: 17.8% |
| COc1cc(OC)c(C2N(c3ccc(Cl)c(Cl)c3)C(=O)C3CCCN32)cc1OC (centres undefined) | inconclusive: 33% |
| COc1cccc(NC(=O)Nc2cccnc2)c1 | inconclusive: 60.6% |
| Cc1ccc(NC(=O)c2cccs2)cc1[N+](=O)[O-] | inconclusive: 43.5% |
| O=C(Nc1ccccc1C(=O)Nc1ccccc1)c1ccccc1F | inconclusive: 30.5% |
| CCOc1ccc(-c2nc(CCl)cs2)cc1 | inactive: 1.16% |
| CC1(C)C2CC=C(/C=N/NC(=O)c3ccccc3O)C1C2 (centres undefined) | inconclusive: 48.5% |
| C=C(C)c1cccc(C(C)(C)NC(=O)Nc2ccc(OC)nc2)c1 | inconclusive: 53.9% |
| Cc1noc(-c2ccc(C(F)(F)F)cc2)c1NC(=O)Nc1ccc(Cl)cc1 | inconclusive: 44.5% |
| Cc1ccc(OCC(=O)Nc2sc3c(c2C#N)CC(C)(C)NC3(C)C)cc1 | inactive: 0.877% |
| CN(C)c1ccc(C=Nc2ccccc2C(N)=O)cc1 | inactive: 0.132% |
| CC(C)Oc1cccc(C(=O)C2CCCN(Cc3cnn(C(C)C)c3)C2)c1 (centres undefined) | inconclusive: 59.9% |
| NS(=O)(=O)c1ccc(NC(=S)NC2CCCCC2)cc1 | inactive: 1.96% |
| Cc1cccc(CN2C(=O)CSc3ccc(C(=O)NC4CC4)cc32)c1 | inconclusive: 43% |
| C/C(CC(=O)NC12CC3CC(CC(C3)C1)C2)=N\NC(=O)c1ccc(F)cc1 | inconclusive: 32% |
| Fc1cccc(Cl)c1CNC(c1ccccc1)c1ccccc1 | inactive: -0.43% |
| CCn1cc(CCCC(=O)NCc2cccc(OC)c2)c2ccccc21 | inconclusive: 72.8% |

Sorted by heavy-atom count (ascending): some entries from above

| SMILES | activation |
| --- | --- |
| CC1(C)C2CC=C(/C=N/NC(=O)c3ccccc3O)C1C2 (centres undefined) | inconclusive: 48.5% |
| O=C(CSc1n[nH]c(-c2ccccn2)n1)Nc1cccc(Cl)c1 | inactive: 6.38% |
| Cc1ccc(OCC(=O)Nc2sc3c(c2C#N)CC(C)(C)NC3(C)C)cc1 | inactive: 0.877% |

More compounds follow.

| SMILES | activation |
| --- | --- |
| Cc1nnc2ccc(-c3cccc(NS(=O)(=O)c4ccccc4Cl)c3)nn12 | inactive: 0.557% |
| O=C(COc1ccc([N+](=O)[O-])cc1)NCCC1=CCCCC1 | inconclusive: 53.3% |
| Cc1cc2oc(C(=O)NC3CCS(=O)(=O)C3)c(C)c2cc1C (centres undefined) | inconclusive: 51.5% |
| CCN(CC)CCn1c2ccccc2c2cnc(N=CN(C)C)c(C#N)c21 | inconclusive: 55% |
| O=C(CCNC(=O)c1ccc(Cl)cc1)Nc1ccc(S(=O)(=O)N2CCCCC2)cc1 | inactive: 27.5% |
| O=C(NCCc1ccc(Cl)cc1)c1n[nH]c2ccccc12 | inconclusive: 52.7% |
| COc1ccc(C(=O)NCCCc2nc3ccccc3n2Cc2ccccc2C)cc1OC | inconclusive: 40% |
| O=C(N/N=C/c1cccc([N+](=O)[O-])c1)c1ccc2c(c1)OCCO2 | inconclusive: 65.8% |
| CCN(CC)CCN(Cc1cc2cc3c(cc2[nH]c1=O)OCCO3)C(=S)NCC(C)C | inconclusive: 62.6% |
| COC(=O)c1cc(NC(=O)c2ccc(-c3ccccc3)cc2)ccc1Cl | inconclusive: 41.1% |
| CCOC(=O)C1(Cc2ccccc2)CCN(Cc2cccc(OC)c2O)CC1 | inactive: 22.9% |
| O=C(NCCc1ccc(Cl)cc1)c1cc2ccccn2n1 | active: 87.1% |
| Cc1ccc2cc3cc(C(=O)N4CC(C)CC(C)C4)oc3nc2c1 (centres undefined) | inconclusive: 46.1% |
| Cc1sc(N)nc1-c1ccccc1 | inactive: -8.43% |
| CCOC(=O)c1c(C)[nH]c(C)c1C(=O)COC(=O)c1cccc(S(=O)(=O)N(CC)CC)c1 | inactive: -3.84% |
| O=c1[nH]c(CN2CCN(c3ccccn3)CC2)nc2c(Br)cc(Br)cc12 | inconclusive: 31.8% |
| Cc1cccc(C)c1NC(=O)NCCCN1CCN(c2ccccc2)CC1 | inactive: -0.259% |
| Cc1oc(-c2ccc(Cl)cc2)cc1C(=O)O | inactive: 4.6% |
| O=C(NNc1ccc([N+](=O)[O-])cc1)c1ccccc1Cl | inactive: 14.5% |
| O=C(Cc1cccs1)NCCc1csc(-c2ccccc2)n1 | inconclusive: 55% |

| SMILES | activation |
| --- | --- |
| O=C(Nc1cc2c3c(c1)C1CCCC1CN3CC1CCCC21)c1ccc([N+](=O)[O-])cc1 (centres undefined) | inconclusive: 50.4% |
| O=C(CN(Cc1ccccc1)C(=O)c1cc2c(s1)CCC2)NCc1cccs1 | inconclusive: 48.3% |
| CC/C(=N/NC(=O)c1ccc(Br)cc1)c1ccc(OCCN2CCOCC2)cc1 | inactive: 16.2% |
| O=C(Nc1ccc(N2CCCC2)cc1)c1cccc(Cl)c1 | inconclusive: 76.5% |
| CCOC(=O)c1csc(NC(=O)CN2CCCCC2)n1 | inactive: -3.03% |
| O=C(NCc1nc(-c2ccccc2)no1)Nc1ccc(F)cc1 | inconclusive: 77.1% |
| O=C(CCC1CCCN(C(=O)c2ccccc2Cl)C1)N1CCN(c2ccccn2)CC1 (centres undefined) | inactive: -3.28% |
| Fc1cccc(NC(=S)NCc2ccccn2)c1 | inactive: 25.6% |
| N#Cc1c([N+](=O)[O-])cc([N+](=O)[O-])cc1S(=O)(=O)Cc1ccccc1 | inactive: -0.349% |
| COc1ccc(CNC(=O)C2=CC(c3ccc(C)cc3)=NS(=O)(=O)N2C)cc1 | inconclusive: 44% |
| CC(=O)N1CCN(c2ccccc2NC(=S)NC(=O)c2cc3ccccc3o2)CC1 | inconclusive: 48.7% |
| CCc1ccc(NC(=O)C(C)Sc2nc(-c3ccco3)c(C#N)c(=O)[nH]2)cc1 (centres undefined) | inactive: 0.0901% |
| CCCCC(=O)NC(c1ccc(Cl)cc1Cl)c1ccc2cccnc2c1O (centres undefined) | inactive: 1.86% |
| Cc1ccc(S(=O)(=O)NCC2CCC(C(=O)NCc3cccs3)CC2)cc1 (centres undefined) | inactive: 3.62% |
| COc1cc(/C=C(\C#N)c2nc3ccccc3[nH]2)ccc1O | inconclusive: 47.6% |
| Cc1nc2oc3c(NCC4CCCO4)ncnc3c2c2c1COC(C)(C)C2 (centres undefined) | inactive: 3.72% |
| CSc1ccc(CN(C)CC(=O)NCc2ccc(F)cc2)cc1 | inconclusive: 54.4% |
| O=S(=O)(c1ccccc1)N1CCN(C(=S)NCc2ccccc2)CC1 | inconclusive: 58.6% |
| O=C1/C(=C/c2ccc(N3CCCC3)cc2)NC(=S)N1C1CC1 | inconclusive: 65.6% |

— PubChem BioAssay AID540275 (National Center for Advancing Translational Sciences (NCATS), 2011)
